Assay results as given in the supplement of paper PMC3334620.
In all, about 33,000 sequences were measured (“E-score (-0.5 to 0.5)”: median about -0.0014, highest 2% from about 0.25 on). The list shows a part of the results.

target: T1, Cad1 (UniProt P24813); experiment: PBM E-score (8-mer binding enrichment) (E-score (-0.5 to 0.5)); higher = stronger / more preferred TF binding; conditions: protein concentration: 100 nM; construct: GST-full length
T1 sequence: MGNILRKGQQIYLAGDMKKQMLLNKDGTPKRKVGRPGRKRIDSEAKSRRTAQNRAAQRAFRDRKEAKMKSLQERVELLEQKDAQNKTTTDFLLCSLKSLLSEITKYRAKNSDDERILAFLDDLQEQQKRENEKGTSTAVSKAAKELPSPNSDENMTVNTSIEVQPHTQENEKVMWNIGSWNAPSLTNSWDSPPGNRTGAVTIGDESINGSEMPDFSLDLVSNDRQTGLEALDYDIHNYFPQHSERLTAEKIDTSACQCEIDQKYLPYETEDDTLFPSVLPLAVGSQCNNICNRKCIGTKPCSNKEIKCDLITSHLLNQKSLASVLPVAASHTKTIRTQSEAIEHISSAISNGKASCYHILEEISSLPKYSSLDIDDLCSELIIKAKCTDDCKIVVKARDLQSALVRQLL
Method in brief: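 GST-tagged yeast TFs (full-length or DNA-binding domain) were made by PURExpress in vitro transcription/translation and applied at about 100-200 nM to universal all-10-mer Agilent arrays. The arrays were made double-stranded by primer extension, on fresh or once-stripped slides. Bound protein was detected with fluorescent anti-GST, and scans were normalised with masliner. Each ungapped eight-base word, pooled with its reverse complement, received an E-score (modified Wilcoxon-Mann-Whitney statistic) from the Universal PBM Analysis Suite.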

Going from AAAGAGGA to AAACAACT, the “PBM E-score” value rises from -0.107 to 0.0358.

Going from ATACTGTA to CATTTGCC, the “PBM E-score” value falls from 0.139 to -0.196.

Compared with GACGTCTA, ACAACCGG is higher in “PBM E-score” value: -0.158 for the first, 0.0195 for the second.

Compared with TTCTGAAA, CACTTCAA is lower in “PBM E-score” value: 0.109 for the first, 0.0461 for the second.

Going from AATGATAC to CGAGTACC, the “PBM E-score” value falls from 0.0611 to 0.0589.

Going from AGGCGCAC to GAGTTAGA, the “PBM E-score” value falls from 0.0699 to -0.088.

Compared with AATAAAAA, ACCATAGG is lower in “PBM E-score” value: 0.264 for the first, -0.176 for the second.

First: CGAAGTCG
Second: CGACGTCG
The “PBM E-score” value of the first is higher: 0.102 for the first, 0.0849 for the second.

First: GACAGAGA
Second: GATTATCA
The “PBM E-score” value of the first is lower: -0.0116 for the first, 0.1 for the second.

First: AGTTGGCG
Second: GATGGTAA
The “PBM E-score” value of the first is lower: -0.0108 for the first, 0.00239 for the second.

First: CATGGGAA
Second: ATGTACGG
The “PBM E-score” value of the first is lower: -0.0667 for the first, 0.0346 for the second.

Compared with CTTGTGGA, AGGTAGCA is lower in “PBM E-score” value: -0.104 for the first, -0.261 for the second.

First: AGCAATAT
Second: AGAGTCAA
The “PBM E-score” value of the first is higher: 0.231 for the first, -0.133 for the second.

First: GGTAATAA
Second: CTAATTAC
The “PBM E-score” value of the first is lower: 0.177 for the first, 0.199 for the second.

First: ACATGCTA
Second: CGAAGCCG
The “PBM E-score” value of the first is higher: 0.0138 for the first, -0.0751 for the second.

Going from CGCGTTTA to AAGGAGAC, the “PBM E-score” value falls from -0.0475 to -0.154.

First: GCCAGTTA
Second: GGCGGACA
The “PBM E-score” value of the first is lower: -0.0182 for the first, -0.0158 for the second.

First: ACTCCCCG
Second: AATTGCCG
The “PBM E-score” value of the first is higher: 0.0906 for the first, 0.0765 for the second.

Going from GGTGACCA to AGTCGTAT, the “PBM E-score” value rises from -0.164 to -0.135.

Going from CGACCCTA to CTTAAATA, the “PBM E-score” value rises from -0.0777 to -0.0548.

Compared with CGGTACGA, GGCTTGGA is higher in “PBM E-score” value: -0.129 for the first, -0.116 for the second.

First: CCGATGCG
Second: GCGTATCC
The “PBM E-score” value of the first is lower: -0.148 for the first, 0.0519 for the second.

Going from CAAGTGTG to AAGGGGCT, the “PBM E-score” value rises from -0.0845 to 0.0431.

Compared with CCCACGCG, CGAACACG is higher in “PBM E-score” value: -0.182 for the first, 0.125 for the second.

First: GTGCTTGA
Second: ACCCATTA
The “PBM E-score” value of the first is higher: 0.067 for the first, -0.0176 for the second.

First: AACTGGCT
Second: AGGGCCCA
The “PBM E-score” value of the first is lower: -0.2 for the first, -0.0336 for the second.

Compared with ACCCATCA, CGAAGGCC is lower in “PBM E-score” value: 0.0594 for the first, -0.103 for the second.

First: AGAGCGGG
Second: GAGTTGAA
The “PBM E-score” value of the first is lower: -0.199 for the first, -0.0548 for the second.

Going from AATAAATC to CCTAATCC, the “PBM E-score” value falls from -0.0137 to -0.0248.

Compared with AAAAGGCG, GATAAGGC is higher in “PBM E-score” value: -0.0129 for the first, 0.0254 for the second.

Going from AGTGAACT to GTCCCCTA, the “PBM E-score” value falls from 0.0619 to -0.198.

First: CTTCCCGC
Second: CATACGAA
The “PBM E-score” value of the first is lower: -0.00381 for the first, 0.0909 for the second.

First: ACTAAAGG
Second: ATTCACAA
The “PBM E-score” value of the first is lower: 0.0101 for the first, 0.228 for the second.

Compared with CCCCTTCC, CGCACGCG is higher in “PBM E-score” value: -0.227 for the first, -0.00598 for the second.

First: GAATGGGC
Second: GGGGGCAC
The “PBM E-score” value of the first is higher: -0.183 for the first, -0.462 for the second.

Going from GATCTGGC to CAGAGCAC, the “PBM E-score” value falls from -0.0466 to -0.0601.

First: ATCCGATG
Second: ATCGGTGG
The “PBM E-score” value of the first is higher: 0.229 for the first, -0.17 for the second.

Compared with ATGTAGCA, TAAAGTCA is lower in “PBM E-score” value: 0.0316 for the first, 0.00267 for the second.

Compared with TACCAGGA, AACCTCAG is lower in “PBM E-score” value: 0.144 for the first, 0.0655 for the second.

Going from AAGCAAGG to GAGGATGC, the “PBM E-score” value falls from -0.0354 to -0.113.

Going from GATGCCCA to CAAAAGAC, the “PBM E-score” value falls from 0.125 to -0.00184.

Going from TTAGTGAA to ACTATATG, the “PBM E-score” value rises from 0.0369 to 0.0931.

Compared with AGAATCGG, CAAGGCCC is lower in “PBM E-score” value: 0.0236 for the first, -0.141 for the second.
